Data as given in PubChem BioAssay AID1671195 (Yale University, 2021)
Aim: 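Knockdowns that increase or decrease uptake of fluorescent LDL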 (primary screen). Cells: human Huh7 hepatoma cells. Reagents: siRNA pool against human genes, 18 nM. Timing: about 2 to 2.5 days of knockdown, then 8 h LDL uptake. Conditions: DiI-labelled LDL at 30 µg/ml for 8 h, in lipoprotein-deficient serum medium. Measurement: 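Fluorescent LDL signal imaged in cells, scaled to the plate median, robust z-score for each replicate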. Scale: robust z-score: higher = more LDL uptake after knockdown. Hit rule: 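Active when two or more replicates show a robust z-score above 2 or below -2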.
In all, the deposit lists about 22,000 reagents; shown is an unselected part. About 1,510 of them (6.9%) count as active. 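Active includes knockdowns raising or lowering LDL uptake; positive z-scores mean more uptake, negative mean less.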 Unmarked entries are inactive. No sequences are given here.

| gene | robust z-score, replicate 1 | robust z-score, replicate 2 | robust z-score, replicate 3 |
| --- | --- | --- | --- |
| SLX9 | -0.489 | -1.06 | -1.02 |
| PPP2R5B | -0.218 | 0.0671 | -0.0833 |
| ADGRB2 | -0.081 | -0.807 | -0.683 |
| HOXA1 | 0.894 | 1.02 | 0.551 |
| KRT75 | 2.49 (active) | 1.51 | 2.56 |
| AMPD1 | -0.801 | -0.595 | 0.108 |
| CRY1 | 0.264 | 1.92 | 0.849 |
| PAX5 | -1.46 | -1.25 | -0.865 |
| IL27RA | 1.3 | 0.494 | 0.757 |
| RXYLT1 | 3.72 (active) | 2.88 | 0.439 |
| ITM2C | -0.181 | -0.119 | -0.521 |
| LOC400890 (retired record) | 0.0849 | -0.0272 | -0.187 |
| PITX2 | -0.133 | -0.858 | 0.548 |
| FOXC2 | 0.141 | 0.427 | 0.167 |
| PYROXD2 | 0.188 | 0.598 | -0.173 |
| CUEDC1 | 0.803 | 0.827 | 0.624 |
| CHI3L1 | -1.36 | -1.49 | -1.74 |
| CMAS | 1.56 | 1.6 | 2.89 |
| SPINT1 | 0.427 | -0.279 | -0.211 |
| NBPF22P | 0.223 | -0.329 | -0.118 |
| BTG4 | 0.971 | -0.32 | -0.0403 |
| KANSL1L | -0.165 | -0.243 | -0.415 |
| TIMP3 | -1.01 | -0.528 | -0.835 |
| KLHL14 | -1.07 | -0.874 | 0.743 |
| UBE2R2 | 0.612 | 1.07 | -0.637 |
| ARHGAP36 | 0.557 | 0.432 | 0.278 |
| TOMM22P3 | -0.845 | -1.25 | -0.562 |
| NINJ2 | -0.565 | 0.674 | 0.772 |
| TSPEAR | 0.884 | 1.18 | 1.31 |
| RASGRP1 | 1.09 | 1.29 | 1.15 |
| ATP2C2 | -0.583 | -0.0331 | 0.365 |
| WNK2 | 0.109 | -0.888 | 0.38 |
| LINC00994 | -0.923 | -0.785 | -0.311 |
| GLT8D1 | 1.21 | 1.17 | 0.728 |
| HMMR | -1.93 | -1.81 | -0.868 |
| SPDYE3 | 0.242 | 0.868 | 1 |
| SS18L2 | -0.164 | 0.738 | 0.121 |
| TXNRD3 | 1.07 | 0.595 | 1.26 |
| TMTC4 | -1.32 | -0.229 | -1.04 |
| BRAF | -0.48 | -1.29 | -0.745 |
| LRCH4 | -0.0867 | -0.375 | -1.1 |
| NPIPB2 | -2.03 (active) | -2.01 | -2.21 |
| ZNF467 | 0.338 | 0.281 | 0.142 |
| ZNF394 | -0.0035 | -0.436 | -0.14 |
| NRIP1 | 0.115 | -0.131 | 0.0574 |
| FCHO2 | -1.08 | -0.098 | -0.865 |
| VPS37A | -0.453 | 0.227 | 0.0338 |
| NTM-AS1 | 1.3 | 0.789 | 0.294 |
| GSTA2 | -0.723 | 1.03 | -0.6 |
| KPNB1 | 0.673 | 1.51 | 1.54 |
| ZNF260 | 0.0283 | 0.236 | -0.0938 |
| GIMAP4 | -1.84 | -1.16 | -0.0951 |
| AFG3L2 | -1.36 | -0.648 | -0.902 |
| PANK2 | -0.649 | 0.0998 | 0.347 |
| SRSF9 | 0.206 | 0.472 | 0.658 |
| KCTD17 | 0.654 | -0.351 | -0.987 |
| STK31 | 1.28 | 1.65 | 1.19 |
| CHKA | -0.41 | -0.0379 | -0.665 |
| ACTR10 | -1.27 | -1.13 | -0.405 |
| COL16A1 | 1.13 | 1.75 | 1.58 |
| TEX11 | -0.955 | -1.29 | -1.45 |
| REP15 | -0.515 | -0.224 | -0.342 |
| TGFBI | 0.619 | 0.268 | 1.11 |
| PLPP3 | -0.892 | -1.03 | -0.551 |
| ERH | 0.807 | 0.182 | 1.14 |
| CEACAM3 | 0.973 | 1.07 | 2.04 |
| DAPK2 | -0.15 | -0.711 | -0.267 |
| KLRC2 | 0.53 | 0.626 | 1.35 |
| SCAMP4 | -1.67 | -0.41 | -0.764 |
| COL28A1 | 0.0663 | 0.554 | 0.56 |
| DSCC1 | 0.357 | -0.358 | 0.426 |
| FAM241A | 1.11 | 0.772 | 1.08 |
| EXD3 | -1.14 | -1.27 | -0.0825 |
| LRRC8A | 0.525 | 0.545 | 0.411 |
| OPN1LW | -0.907 | -1.09 | -0.718 |
| LINC01999 | 1.04 | 0.753 | 1.12 |
| GOLGA6EP | 0.157 | 0.105 | -0.264 |
| GNPTG | 1.8 | 1.44 | 2.18 |
| EXOSC9 | -1.25 | -1.06 | -1.68 |
| LINC02243 | -2.02 (active) | -2.1 | -2.27 |
| PPP2R5C | 0.702 | 1.04 | 0.406 |
| EIF2A | -0.403 | -0.633 | 0.41 |
| DCST2 | -1.08 | -0.315 | -1.22 |
| CMTR2 | -2.17 | -0.238 | -0.482 |
| SLC39A3 | 1.99 | 1.43 | 1.97 |
| CDH23 | -1.12 | -1.25 | -1.19 |
| UPP1 | 1.42 | 0.927 | 1.18 |

Only “robust z-score, replicate 1”, for 14 of the entries above:
TXNRD3: 1.07
TMTC4: -1.32
BRAF: -0.48
LRCH4: -0.0867
NPIPB2: -2.03 (active)
ZNF467: 0.338
ZNF394: -0.0035
NRIP1: 0.115
FCHO2: -1.08
VPS37A: -0.453
NTM-AS1: 1.3
GSTA2: -0.723
KPNB1: 0.673
ZNF260: 0.0283
